## Screening data, single-dose tests

Results are given as percent effect.
The controls that fix the scale are not given in the record; negative values are as filed.
Compounds were drawn at random from those tested, without regard to their results.
Two or more numbers in one place are separate tests of the same structure; such repeats can differ widely.

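Whole-cell growth test on Mycobacterium tuberculosis, read after 4 days in a medium based on cholesterol and the lipid DPPC; the read-out is not stated. Concentration: 50 µM. Higher reads as more growth inhibition (inferred: compounds with an IC50 in retests scored well above the rest). Size under these conditions: about 69,000 compounds, about 370 of them at 50% or above in at least one test.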

Compound	Percent Effect
CC(CCn1cccn1)N1CCC(n2cc(C(C)(C)N)nn2)CC1 (configuration not stated)	18.58%
CCOCC(=O)N1CCC(c2nc(-c3cccnn3)no2)CC1	-10.28%
CC(C)N(C)Cc1cnc2n1CCN(Cc1ccco1)C2.O=C(O)C(F)(F)F.O=C(O)C(F)(F)F	4.717%
Cc1nc(CN2CCCC(N(C)c3cnc4ccccc4n3)C2)no1 (configuration not stated)	33.77%
CC(C)(C)n1ncc2c1CCCC2NCc1ccc2c(c1)OCCO2 (configuration not stated)	-10.19%
Cc1c(C(=O)NC(CN2CCCC2=O)c2ccccc2)cnn1C (configuration not stated)	-19.79%
O=C1NCCN1C1CCN(Cc2nc(-c3ccsc3)no2)CC1	11.93%
CNC(=O)c1cc2c(nc1NCC1CC1)CCN(S(C)(=O)=O)CC2.O=C(O)C(F)(F)F	6.951%
[H][C@]12CN(C(=O)N(C)C)CCN1C[C@H](c1ccccc1)[C@H]2C(=O)OCC	8.255%
Cc1cc2ccccc2n1CCC(=O)N1CCCCC1CCO (configuration not stated)	28.18%
CC(O)(CNc1ccc(Cl)c(C#N)n1)c1ccccc1 (configuration not stated)	30.46%
[H][C@]12CC[C@]([H])(CN(C(=O)N(C)C)C1)N(C(=O)CCn1ccnc1CC)C2	15.58%
COc1ccccc1N1CCN(C(=O)CSCC2CC2)C(C)C1 (configuration not stated)	-18.14%
COCc1noc(Cn2c(=O)[nH]c3ccccc32)n1	-7.998%
NC(=O)C1(c2cnccn2)CCCN1C(=O)Cc1ccsc1 (configuration not stated)	-8.226% and 45.86%
[H][C@@]12NC(=O)N[C@@H](c3ccc(OC)cc3)[C@]1([H])CCCO2	2.931%
Cc1nnc(SCCC(=O)N(C)Cc2ccc(F)cc2Cl)[nH]1	20.47% and 13%
CC(C)CNC(=O)C1=NOC2(CCN(Cc3ccoc3)C2)C1 (configuration not stated)	-1.424%
O=C(CCS(=O)(=O)c1ccccc1)NC1CCOC2(CCOCC2)C1 (configuration not stated)	-1.86%
[H][C@@]12CN(Cc3ccoc3)CCO[C@]1([H])CN(C(=O)CC1CCCC1)C2	-0.4336% and 3.531%
CC(=O)N(C)Cc1ccccc1NCc1c(C)cccc1C	1.714%
CC(Nc1ccc(Br)cc1)c1nc(C2CC2)no1 (configuration not stated)	67.79%
Cc1nc(NCc2ccccn2)c2c(n1)c(C)nn2C	4.569%
CN1C(=O)CC2(CCN(S(=O)(=O)c3cccs3)CC2)c2ccccc21	-3.753%
Cl.O=C(Nc1ccccc1)C1=NOC2(CCNCC2)C1	-17.96%
O=C(O)C(F)(F)F.[H][C@]12CCC[C@@]1(COCc1ccncc1)CN(C(=O)CS(C)(=O)=O)C2	-19.67%
CNc1cc(C)nc(N2CCC3(CC2)[C@H](O)C[C@@H]3OC)n1	9.784%
COc1ccc(SC(C)C(=O)N2CCC(C(N)=O)CC2)cc1 (configuration not stated)	3.213% and 5.131%
CC[C@@H]1N(Cc2ccncc2)CCC[C@]12CCC(=O)N2C.O=C(O)C(F)(F)F.O=C(O)C(F)(F)F	-5.416% and -9.106%
Cc1cc(C(=O)NCc2ccnc(OCC(F)(F)F)c2)no1	-0.175%
COCCN1CCc2c(cnc(-c3ccccc3)c2C(=O)O)C1.O=C(O)C(F)(F)F	-22.71%
N#Cc1cccnc1NCCc1cc(F)cc2c1OCOC2	-20.22%

Some entries from above, unchanged:

* CC(Nc1ccc(Br)cc1)c1nc(C2CC2)no1 (configuration not stated) : 67.79%
* COCc1noc(Cn2c(=O)[nH]c3ccccc32)n1 : -7.998%
* CC(C)(C)n1ncc2c1CCCC2NCc1ccc2c(c1)OCCO2 (configuration not stated) : -10.19%
* O=C(O)C(F)(F)F.[H][C@]12CCC[C@@]1(COCc1ccncc1)CN(C(=O)CS(C)(=O)=O)C2 : -19.67%

Data taken from ChEMBL document CHEMBL3988442, “University of Dundee, Small-Polar-MMV Screening Library” (2021).